This test can be described thus: qHTS Assay to Find Inhibitors of Chronic Active B-Cell Receptor Signaling. Particulars: ABC-DLBCL IkBa-CBG/CBR reporter, luminescence ratio (green luciferase fused to IkBa over red control in TMD8 lymphoma cells), 4 h. The essentials: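 Concentration-response series (up to 46 uM) were applied to TMD8 dual-reporter cells for 4 h at 37C with doxycycline. Green/red ratio, after filter-overlap correction, defined %Activity; red signal alone was normalised to basal cells and zero luminescence.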

The mark [1] stands for this setting: measured here: CBR red luminescence, cell number.
Setting [2] is: measured here: IkBa-CBG green luminescence.

The other results are listed elsewhere or left out. These are further read-outs of the screen, such as a control signal, another cell line or another target. No call is given for them. The list favours compounds with an active or inconclusive main result. Words in brackets tell the shape of the fitted curve; partial curves, single points and poor fits give uncertain potencies.

For orientation: AC50 means the midpoint of the concentration-response curve, whichever way the signal moves.

With `COc1ccc(-c2nnn(CC(=O)N(CC3CCCO3)C(C(=O)NC(C)(C)C)c3ccco3)n2)cc1OC` (stereo not given), the concentration at half-maximal activity (AC50) under setting [1] is 35.5 µM [rising, single point].

Consider `CCOC(=O)c1n[nH]n(-c2cc(Cl)cc(Cl)c2)c1=O`, for which the AC50 under setting [1] was 11.2 µM [falling, partial curve, poor fit].

Take `Cc1cc(C)c2nc(C(F)(F)F)nc(NCCCN3CCOCC3)c2c1`: the concentration at half-maximal activity (AC50) reads like this: under setting [1], 2.06 µM [rising, partial curve, poor fit]; under setting [2], 10.3 µM [falling, partial curve].

Turning to `COc1ccc(/C=C/C(=O)c2ccc(O)cc2)cc1CN1CCOCC1`, the AC50 under setting [1] is 29.1 µM [falling, single point].

As for `O=C(COC(=O)/C=C/c1ccc(Cl)c(Cl)c1)NC1CCS(=O)(=O)C1` (stereo not given), under setting [1], the concentration at half-maximal activity (AC50) is 29.1 µM [falling, single point].

`Cc1ccccc1NC(=O)Nc1cccs1`: the concentration at half-maximal activity (AC50) under setting [1] is 16.4 µM [falling, single point].

As for `NC(=O)COC(=O)CCCc1nc2ccccc2s1`, the concentration at half-maximal activity (AC50) under setting [1] is 7.31 µM [rising, partial curve, poor fit].

In the case of `CC[C@]12c3[nH]c4cc(-c5ccco5)ccc4c3CCN1C(=O)[C@@H](CC(=O)NCC13CC4CC(CC(C4)C1)C3)C[C@@H]2C(=O)N1CCN(C(=O)c2ccco2)CC1`, under setting [2], the AC50 is 29.1 µM [falling, single point].

On to `Cc1cc(N)n2nc(-c3ccc(C(C)(C)C)cc3)cc2n1`, for which, under setting [1], the AC50 is 14.6 µM [rising, partial curve].

As for `CCc1ccc(C2=NN(CCC(=O)NC3CC3)C(=O)CC2)cc1`, under setting [1], the concentration at half-maximal activity (AC50) was 32.6 µM [rising, partial curve, poor fit].

`CN(Cc1ccccc1)/C(=N/O)c1cccc(Cl)c1`: the concentration at half-maximal activity (AC50) under setting [1] was 15.8 µM [rising, single point].

Take `C=CCC[C@H](Cc1ccc(F)cc1)C(=O)OC[C@@H](Cc1c[nH]c2ccccc12)NC(=O)[C@H](CC=C)CC(=O)N[C@H](CO)Cc1ccccc1`: under setting [1], the AC50 was 29.1 µM [falling, single point].

As to `CCCOc1ccc(NC(=O)CC2C(=O)N(Cc3ccccc3)C(=S)N2Cc2cccs2)cc1` (stereo not given), the AC50 is, setting by setting: under setting [1], 2.31 µM [falling, partial curve, poor fit]; under setting [2], 23.1 µM [rising, partial curve, poor fit].

On to `COCCn1c(SCC(=O)NCc2ccco2)nnc1C(C)C`, for which the AC50 under setting [1] was 0.731 µM [rising, full curve, poor fit].

For `CC(=O)c1sc(NC(=O)COc2ccc(Cl)cc2Cl)nc1C`, the AC50 under setting [1] was 20 µM [falling, single point].

Take `COc1ccccc1OCC(=O)Nn1c(=S)[nH]c2ncccc2c1=O`: the AC50 under setting [1] was 0.92 µM [falling, partial curve, poor fit].

For the molecule `COc1ccc(/C=C(/NC(=O)c2ccccc2)C(=O)N2CCC(C)CC2)cc1`, the AC50 under setting [1] was 35.5 µM [rising, single point].

As for `O=C(NC12CC3CC(CC(C3)C1)C2)c1ccc(-c2ccc(Cl)cc2)o1`, the half-maximal activity concentration (AC50) under setting [1] is 9.2 µM [rising, partial curve, poor fit].

For `N#CCC(=O)Nc1ccc(C(=O)OCC(=O)N2CCN(C(=O)c3ccco3)CC2)cc1`, the concentration at half-maximal activity (AC50) under setting [1] is 7.31 µM [falling, single point].

Regarding `O=C(CN1C(=O)c2ccccc2S1(=O)=O)NC1CCCCCC1`, the concentration at half-maximal activity (AC50) under setting [1] is 3.66 µM [rising, partial curve, poor fit].

`O=C(O)c1ccc2nc(-c3ccco3)c(-c3ccco3)nc2c1`: the AC50 under setting [1] was 15.8 µM [falling, single point].

In the case of `O=C(C1Cc2ccccc2CN1S(=O)(=O)c1cccs1)N1CCCCCC1` (stereo not given), the AC50 under setting [1] is 11.6 µM [falling, partial curve].

Take `COc1ccccc1CNS(=O)(=O)c1cccc(S(=O)(=O)N2CCOCC2)c1`: the AC50 under setting [1] was 29.1 µM [falling, single point].

For the molecule `CN(C)/C=N/c1nc(-c2ccc3ccccc3c2)cs1`, the half-maximal activity concentration (AC50) under setting [1] is 35.5 µM [falling, single point].

With `CC(CCc1ccc(O)cc1)NC1C2CC3CC(C2)CC1C3` (stereo not given), the AC50 under setting [1] was 2.59 µM [rising, partial curve, poor fit].

As for `C=CCOc1ccccc1CNCCc1ccc(S(N)(=O)=O)cc1`, the AC50 under setting [1] was 5.01 µM [falling, full curve, poor fit].

Regarding `COC(=O)c1sc(NC(=O)/C=C/c2ccc(C)o2)nc1C`, the concentration at half-maximal activity (AC50) under setting [1] is 1.64 µM [falling, partial curve].

As to `CC(C)(C)NCC(O)(c1ccc(Cl)cc1)c1ccc(Cl)cc1`, the AC50 under setting [1] was 35.5 µM [falling, single point].

For the molecule `Cc1cc(C(=O)Cn2nnc3ccccc3c2=O)c(C)n1Cc1cccs1`, under setting [1], the AC50 is 35.5 µM [falling, single point].

As to `O=C(O)c1ccc(COc2ccc(Cl)cc2)o1`, under setting [1], the AC50 was 14.6 µM [falling, partial curve, poor fit].

Take `CC(C)(C)c1ccc(/C=N/N2CCN(c3ccccn3)CC2)cc1`: the concentration at half-maximal activity (AC50) under setting [1] is 11.2 µM [rising, single point].

Take `O=C(c1ccc(Cl)cc1)c1ccc(OCC(O)CN2CCCCC2)cc1` (stereo not given): under setting [1], the concentration at half-maximal activity (AC50) is 2.06 µM [rising, full curve, poor fit].

Regarding `c1ccc2c(Nc3ccc4c(c3)OCCO4)c3c(nc2c1)CCC3`, the AC50 under setting [1] was 22.4 µM [falling, single point].

In the case of `CCOc1cc(/C=N/NC(=O)c2cccs2)ccc1OC(=O)N1CCOCC1`, the concentration at half-maximal activity (AC50) under setting [1] was 1.3 µM [falling, full curve].

For `COc1cc(/C=N/N2C(=O)C3C4c5ccccc5C(c5ccccc54)C3C2=O)ccc1O` (stereo not given), under setting [1], the AC50 is 14.6 µM [falling, partial curve, poor fit].

As for `CCCCNC(=O)c1cc(-c2ccc(OC)cc2)on1`, the AC50 under setting [1] is 5.8 µM [falling, full curve].

`CC1CCCCC1NC(=O)c1cc2ccccc2o1` (stereo not given): the half-maximal activity concentration (AC50) under setting [1] was 10.3 µM [falling, partial curve].

Regarding `O=C(COc1ccc(Cl)cc1)NCc1nnc(SCC(=O)Nc2ccccc2F)o1`, the concentration at half-maximal activity (AC50) under setting [1] is 0.631 µM [falling, full curve, poor fit].

Regarding `C=CCn1c(SCC(=O)NNC(=O)Nc2cccc(Cl)c2)nnc1-c1ccccc1`, the AC50 under setting [1] is 3.55 µM [rising, partial curve, poor fit].

Turning to `CC(OC(=O)c1cc[n+]([O-])cc1)C(=O)Nc1ccc(Cl)cn1` (stereo not given), the AC50 under setting [1] was 3.98 µM [falling, full curve, poor fit].

In the case of `O=C(c1ccccc1)N1CCCC(c2ccc(Cl)cc2)=N1`, the AC50 under setting [1] is 3.98 µM [falling, partial curve, poor fit].

Consider `O=C(Nc1ccc(OCc2ccccc2)cc1)Nc1ccccc1C(=O)NCCCN1CCOCC1`, for which, under setting [1], the AC50 is 2.51 µM [falling, full curve].

For the molecule `CC1(C)NC(=O)N(c2ccccc2Cl)C1(C)NO` (stereo not given), the AC50 under setting [1] is 0.00517 µM [falling, full curve, poor fit].

`CCN(CC)C(=O)c1[nH]cnc1C(=O)Nc1ccc(OC)cc1`: under setting [1], the concentration at half-maximal activity (AC50) is 12.6 µM [rising, partial curve, poor fit].

With `O=[N+]([O-])c1ccc(-c2nc(Nc3ccc(O)cc3)c3ccccc3n2)cc1`, under setting [1], the concentration at half-maximal activity (AC50) was 5.62 µM [rising, single point].

For `CCOC(=O)c1cc(CC)sc1/N=C/C1=C(O)CC(C)(C)CC1=O`, the concentration at half-maximal activity (AC50) under setting [1] is 2.06 µM [rising, full curve].

On to `CCn1nc([N+](=O)[O-])c2c(-c3nc4ccccc4o3)c(N)n(CCCOC)c2c1=O`, for which the concentration at half-maximal activity (AC50) under setting [1] is 10 µM [rising, partial curve, poor fit].

As for `COc1ccccc1N1CCN(S(=O)(=O)c2ccc3c(c2)NC(=O)C(C)S3)CC1` (stereo not given), under setting [1], the concentration at half-maximal activity (AC50) is 0.355 µM [falling, partial curve, poor fit].

As for `COc1ccc(N2C(=O)[C@@H]3Cc4ccccc4CN3C2=O)cc1`, the AC50 under setting [1] was 0.501 µM [rising, partial curve, poor fit].

In the case of `Nc1ccc(C(=O)Nc2ccc3nc(-c4cccnc4)[nH]c3c2)cc1`, under setting [1], the half-maximal activity concentration (AC50) was 1.58 µM [falling, partial curve].

For the molecule `CC(=O)N1N=C(c2cccc(NS(=O)(=O)c3ccc(C)cc3)c2)CC1c1ccco1` (stereo not given), the AC50 under setting [1] is 11.2 µM [falling, partial curve, poor fit].

Take `CC(CCc1ccc(O)cc1)NCCC(c1ccccc1)c1ccccc1` (stereo not given): the AC50 under setting [1] was 35.5 µM [falling, single point].

For the molecule `O=C1CN(C(=O)/C=C/c2ccco2)c2ccccc2N1`, the half-maximal activity concentration (AC50) under setting [1] is 15.8 µM [rising, single point].

As to `CCCN(CC1CC1)c1nc(N)c2c(N)nc(OC)cc2c1C#N`, the concentration at half-maximal activity (AC50) reads like this: under setting [1], 11.6 µM [falling, partial curve, poor fit]; under setting [2], 7.31 µM [rising, partial curve, poor fit].

On to `O=C(CCn1c(=O)sc2ccccc21)Nc1cccnc1`, for which the AC50 under setting [1] is 0.103 µM [rising, full curve, poor fit].

Consider `C[C@@]12C(=O)N(c3ccc(Br)cc3)C(=O)N1[C@@H]1c3ccccc3OC[C@@H]1[C@H]2c1ccccc1`, for which the AC50 under setting [1] is 25.9 µM [falling, partial curve, poor fit].

Turning to `c1ccc(-c2nc3nonc3c3nc4ccccc4n23)cc1`, the concentration at half-maximal activity (AC50) under setting [1] was 3.55 µM [falling, full curve, poor fit].

`COc1ccc(-c2cc3nc(C)c(CCC(=O)NC(C)CCc4ccco4)c(C)n3n2)c(OC)c1` (stereo not given): the AC50 under setting [1] is 6.51 µM [falling, partial curve].

For `Cc1ccc(NC2=C(Cl)C(=O)OC2OC(=O)c2ccccc2C)cc1` (stereo not given), the concentration at half-maximal activity (AC50) under setting [1] was 25.1 µM [falling, single point].

As to `O=C(O)c1ccc(N=Nc2c(O)ccc3ncccc23)cc1`, the AC50 under setting [1] is 0.447 µM [falling, full curve].

On to `O=C(COc1ccc(Cl)cc1Cl)N1CCCCCC1`, for which the AC50 under setting [1] was 6.31 µM [rising, partial curve].

Take `Cc1nc2ccccc2cc1C(=O)N/N=C/c1ccc([N+](=O)[O-])cc1`: the concentration at half-maximal activity (AC50) under setting [1] was 3.26 µM [rising, full curve, poor fit].

(Values after PubChem BioAssay AID493014 (National Center for Advancing Translational Sciences (NCATS), 2011).)
